The values that follow come from US20150110745A1.

Results are given in words; binding and its absence hold for the method and conditions named. A result given as binding can be weak or reduced; the word gives no strength.

Assay [1] addresses T1, Recombinant Human LPS Binding Protein (rhLBP) (human) (UniProt P18428).
T1 sequence (looked up): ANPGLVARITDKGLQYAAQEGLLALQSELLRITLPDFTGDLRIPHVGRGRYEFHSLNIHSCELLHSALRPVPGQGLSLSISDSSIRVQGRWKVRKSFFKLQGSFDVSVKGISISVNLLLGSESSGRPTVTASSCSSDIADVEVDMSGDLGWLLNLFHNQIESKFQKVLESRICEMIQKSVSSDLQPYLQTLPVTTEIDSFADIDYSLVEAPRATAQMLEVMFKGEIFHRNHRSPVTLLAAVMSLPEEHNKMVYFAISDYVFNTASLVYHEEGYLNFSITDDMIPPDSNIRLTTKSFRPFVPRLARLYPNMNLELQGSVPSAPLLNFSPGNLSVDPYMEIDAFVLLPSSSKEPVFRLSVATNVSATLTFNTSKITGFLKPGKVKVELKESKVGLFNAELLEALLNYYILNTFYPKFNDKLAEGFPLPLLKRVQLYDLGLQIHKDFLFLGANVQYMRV
The experiment in a line: direct ELISA.

Assay [2] has as its target T1, Recombinant Human LPS Binding Protein (rhLBP) (human). In words: direct ELISA, rhLBP coated at 4 ug/ml, E+13 phages, detection with HRP-conjugated anti-p8 antibody. For orientation: In an ELISA, binding on a coated surface is turned into a signal by an enzyme label.

Take “M13KO7 Helper Phage (New England Biolabs) (bacteriophage M13 (M13KO7))”: the binding result in assay [1] and in assay [2] was “binds” each time.
